According to paper PMC6960150:
No constants are given. Whether binding was seen depends on the method and setting. In cells and extracts the contact can be indirect. Some entries that bind do so weakly or less than the wild type.

Protein sequences, listed by entry. Tags and fused reporters are not part of them.
UniProt P29128: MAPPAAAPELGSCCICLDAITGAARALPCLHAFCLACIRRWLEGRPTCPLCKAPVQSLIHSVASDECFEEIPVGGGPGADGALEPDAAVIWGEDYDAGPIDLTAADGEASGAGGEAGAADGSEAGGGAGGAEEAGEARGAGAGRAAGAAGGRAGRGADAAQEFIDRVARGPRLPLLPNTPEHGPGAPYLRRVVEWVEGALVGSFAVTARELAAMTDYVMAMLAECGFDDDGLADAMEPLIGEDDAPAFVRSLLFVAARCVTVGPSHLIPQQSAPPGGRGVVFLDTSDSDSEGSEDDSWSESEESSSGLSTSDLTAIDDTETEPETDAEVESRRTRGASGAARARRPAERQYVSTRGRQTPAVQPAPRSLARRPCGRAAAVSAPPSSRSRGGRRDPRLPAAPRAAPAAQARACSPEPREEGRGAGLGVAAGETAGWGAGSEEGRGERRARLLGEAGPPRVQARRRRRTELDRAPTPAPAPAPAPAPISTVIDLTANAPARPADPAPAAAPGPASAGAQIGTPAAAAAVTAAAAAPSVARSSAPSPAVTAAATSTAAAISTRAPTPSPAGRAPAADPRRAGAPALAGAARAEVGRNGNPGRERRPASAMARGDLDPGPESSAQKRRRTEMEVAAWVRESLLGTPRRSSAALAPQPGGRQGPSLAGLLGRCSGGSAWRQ
UniProt Q3ZCC3: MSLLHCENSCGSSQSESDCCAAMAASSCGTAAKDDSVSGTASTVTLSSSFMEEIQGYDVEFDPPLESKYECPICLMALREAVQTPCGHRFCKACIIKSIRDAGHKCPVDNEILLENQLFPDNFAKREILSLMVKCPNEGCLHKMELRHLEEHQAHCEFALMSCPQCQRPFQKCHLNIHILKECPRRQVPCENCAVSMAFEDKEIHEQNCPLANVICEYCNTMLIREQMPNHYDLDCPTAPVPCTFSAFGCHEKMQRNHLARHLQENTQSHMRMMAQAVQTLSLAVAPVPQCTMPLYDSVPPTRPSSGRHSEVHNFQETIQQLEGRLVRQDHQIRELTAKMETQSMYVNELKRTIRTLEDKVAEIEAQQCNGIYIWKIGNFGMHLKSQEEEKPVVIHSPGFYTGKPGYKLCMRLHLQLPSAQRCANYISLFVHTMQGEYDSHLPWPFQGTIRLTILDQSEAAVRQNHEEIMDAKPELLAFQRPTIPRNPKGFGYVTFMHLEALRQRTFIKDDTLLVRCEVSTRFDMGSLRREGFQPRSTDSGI

What was measured:
[1] = target: Flag-tagged wild type BICP0 (infected cell protein 0 of bovine herpesvirus 1) (bovine herpesvirus 1 (BHV-1)) (UniProt P29128); experiment: co-IP; HEK293T co-transfected, lysed 36 h after transfection; lysate with anti-Flag magnetic beads 2 h at room temperature; blot with anti-HA
[2] = target: HA-tagged bovine TRAF6 (tumor necrosis factor receptor-associated factor 6) (bovine) (UniProt Q3ZCC3); experiment: co-IP; reverse co-IP: HEK293T co-transfected, lysed 36 h after transfection; lysate with anti-HA magnetic beads 2 h at room temperature; western blot

“HA-tagged bovine TRAF6 (tumor necrosis factor receptor-associated factor 6) (from UniProt Q3ZCC3 1-542)” was tested, and the binding [1] was “binds”.

With “Flag-tagged wild type BICP0 (infected cell protein 0 of bovine herpesvirus 1) (from UniProt P29128 1-676)” the binding [2] was “binds”.
